This is an account of results in article doi:10.1101/2021.05.01.442209.

The target in assay [1] is wild type mouse MLKL (mixed lineage kinase domain-like) (mouse) (UniProt Q9D2Y4). The assay is described as follows: native gel or EMSA.
Assay [2] deals with R105A/D106A mutant mouse MLKL (mouse) (UniProt Q9D2Y4). The assay is described as follows: native gel or EMSA.

Positions count from the first letter of the chain named. In names and notes the source's numbering stands. These are yes or no findings as the source states them, for the method shown. Some entries that bind do so weakly or less than the wild type.

B1: wild type mouse MLKL (mixed lineage kinase domain-like) (protein, UniProt Q9D2Y4 1-472)
chain: MDKLGQIIKLGQLIYEQCEKMKYCRKQCQRLGNRVHGLLQPLQRLQAQGKKNLPDDITAALGRFDEVLKEANQQIEKFSKKSHIWKFVSVGNDKILFHEVNEKLRDVWEELLLLLQVYHWNTVSDVSQPASWQQEDRQDAEEDGNENMKVILMQLQISVEEINKTLKQCSLKPTQEIPQDLQIKEIPKEHLGPPWTKLKTSKMSTIYRGEYHRSPVTIKVFNNPQAESVGIVRFTFNDEIKTMKKFDSPNILRIFGICIDQTVKPPEFSIVMEYCELGTLRELLDREKDLTMSVRSLLVLRAARGLYRLHHSETLHRNISSSSFLVAGGYQVKLAGFELSKTQNSISRTAKSTKAERSSSTIYVSPERLKNPFCLYDIKAEIYSFGIVLWEIATGKIPFEGCDSKKIRELVAEDKKQEPVGQDCPELLREIINECRAHEPSQRPSVDGRSLSGRERILERLSAVEESTDKKV
Consider B1, for which the binding entry in assay [1] is reported as “binds”.

B2: R105A/D106A mutant mouse MLKL (protein, UniProt Q9D2Y4 1-472)
chain: B1 chain with R105A, D106A
Take B2: in assay [2], the binding result is listed as “no binding”.
